Test results reported in the supplement of paper PMC8728848.
This is one part of the list.

Experiments:
Test in all cases: glycan array binding signal (z-score within array); higher = stronger binding
Details in all cases: glycan notation: IUPAC condensed, linker removed
[1] = target: Neu5Ac(a2-3)Gal(b1-3)[Fuc(a1-4)]GlcNAc
Procedure, shortened: (§1)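 Glycan array data were curated from 3228 arrays in the Consortium for Functional Glycomics database and kept only where the protein sequence was available. Glycan names were converted to IUPAC-condensed notation, and columns mapping to the same glycan were averaged. The binding signal is a within-array Z-score, averaged across arrays of the same protein sequence at different concentrations or buffers and across linkers. Negative Z-scores can be read as non-binding.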

[2] = target: Neu5Ac(a2-3)Gal(b1-3)[Fuc(a1-4)]GlcNAc(b1-3)Gal(b1-3)[Fuc(a1-4)]GlcNAc
Procedure, shortened: as §1

[3] = target: Neu5Ac(a2-3)Gal(b1-3)[Fuc(a1-4)]GlcNAc(b1-3)Gal(b1-4)[Fuc(a1-3)]GlcNAc
Procedure, shortened: as §1

[4] = target: Neu5Ac(a2-3)Gal(b1-3)[GlcNAc(b1-6)]GalNAc
Procedure, shortened: as §1

[5] = target: Neu5Ac(a2-3)Gal(b1-3)[Neu5Ac(a2-6)]GalNAc
Procedure, shortened: as §1

[6] = target: Neu5Ac(a2-3)Gal(b1-3)[Neu5Ac(a2-6)]GlcNAc(b1-3)[Fuc(a1-3)[Gal(b1-4)]GlcNAc(b1-6)]Gal(b1-4)Glc
Procedure, shortened: as §1

[7] = target: Neu5Ac(a2-3)Gal(b1-3)]Neu5Ac(a2-3)Gal(b1-4)]GlcNAc
Procedure, shortened: as §1

Neu5Ac(a2-3)Gal(b1-4)Glc = target: Neu5Ac(a2-3)Gal(b1-4)Glc
Procedure, shortened: as §1

[8] = target: Neu5Ac(a2-3)Gal(b1-4)GlcNAc
Procedure, shortened: as §1

[9] = target: Neu5Ac(a2-3)Gal(b1-4)GlcNAc(b1-2)Man
Procedure, shortened: as §1

[10] = target: Neu5Ac(a2-3)Gal(b1-4)GlcNAc(b1-2)Man(a1-3)[GlcNAc(b1-4)][Neu5Ac(a2-3)Gal(b1-4)GlcNAc(b1-2)Man(a1-6)]Man(b1-4)GlcNAc(b1-4)GlcNAc
Procedure, shortened: as §1

[11] = target: Neu5Ac(a2-3)Gal(b1-4)GlcNAc(b1-2)Man(a1-3)[Neu5Ac(a2-3)Gal(b1-4)GlcNAc(b1-2)Man(a1-6)]Man(b1-4)GlcNAc(b1-4)GlcNAc
Procedure, shortened: as §1

[12] = target: Neu5Ac(a2-3)Gal(b1-4)GlcNAc(b1-2)Man(a1-3)[Neu5Ac(a2-3)Gal(b1-4)GlcNAc(b1-2)Man(a1-6)]Man(b1-4)GlcNAc(b1-4)[Fuc(a1-6)]GlcNAc
Procedure, shortened: as §1

[13] = target: Neu5Ac(a2-3)Gal(b1-4)GlcNAc(b1-2)Man(a1-3)[Neu5Ac(a2-6)Gal(b1-4)GlcNAc(b1-2)Man(a1-6)]Man(b1-4)GlcNAc(b1-4)GlcNAc
Procedure, shortened: as §1

[14] = target: Neu5Ac(a2-3)Gal(b1-4)GlcNAc(b1-2)[Neu5Ac(a2-3)Gal(b1-4)GlcNAc(b1-4)]Man(a1-3)[GlcNAc(b1-4)][Neu5Ac(a2-3)Gal(b1-4)GlcNAc(b1-2)[Neu5Ac(a2-3)Gal(b1-4)GlcNAc(b1-6)]Man(a1-6)]Man(b1-4)GlcNAc(b1-4)GlcNAc
Procedure, shortened: as §1

[15] = target: Neu5Ac(a2-3)Gal(b1-4)GlcNAc(b1-2)[Neu5Ac(a2-3)Gal(b1-4)GlcNAc(b1-4)]Man(a1-3)[GlcNAc(b1-4)][Neu5Ac(a2-3)Gal(b1-4)GlcNAc(b1-4)Man(a1-6)]Man(b1-4)GlcNAc(b1-4)GlcNAc
Procedure, shortened: as §1

[16] = target: Neu5Ac(a2-3)Gal(b1-4)GlcNAc(b1-2)[Neu5Ac(a2-3)Gal(b1-4)GlcNAc(b1-6)]Man(a1-6)[Neu5Ac(a2-3)Gal(b1-4)GlcNAc(b1-2)Man(a1-3)]Man(b1-4)GlcNAc(b1-4)GlcNAc
Procedure, shortened: as §1

[17] = target: Neu5Ac(a2-3)Gal(b1-4)GlcNAc(b1-2)[Neu5Ac(a2-3)Gal(b1-4)GlcNAc(b1-6)]Man(a1-6)[Neu5Ac(a2-3)Gal(b1-4)GlcNAc(b1-2)Man(a1-3)][GlcNAc(b1-4)]Man(b1-4)GlcNAc(b1-4)GlcNAc
Procedure, shortened: as §1

[18] = target: Neu5Ac(a2-3)Gal(b1-4)GlcNAc(b1-3)Gal
Procedure, shortened: as §1

[19] = target: Neu5Ac(a2-3)Gal(b1-4)GlcNAc(b1-3)Gal(b1-3)GlcNAc
Procedure, shortened: as §1

[20] = target: Neu5Ac(a2-3)Gal(b1-4)GlcNAc(b1-3)Gal(b1-4)GlcNAc
Procedure, shortened: as §1

[21] = target: Neu5Ac(a2-3)Gal(b1-4)GlcNAc(b1-3)Gal(b1-4)GlcNAc(b1-2)Man(a1-3)[Neu5Ac(a2-3)Gal(b1-4)GlcNAc(b1-3)Gal(b1-4)GlcNAc(b1-2)Man(a1-6)]Man(b1-4)GlcNAc(b1-4)GlcNAc
Procedure, shortened: as §1

[22] = target: Neu5Ac(a2-3)Gal(b1-4)GlcNAc(b1-3)Gal(b1-4)GlcNAc(b1-3)Gal(b1-4)GlcNAc
Procedure, shortened: as §1

[23] = target: Neu5Ac(a2-3)Gal(b1-4)GlcNAc(b1-3)Gal(b1-4)GlcNAc(b1-3)Gal(b1-4)GlcNAc(b1-2)Man(a1-3)[Neu5Ac(a2-3)Gal(b1-4)GlcNAc(b1-3)Gal(b1-4)GlcNAc(b1-3)Gal(b1-4)GlcNAc(b1-2)Man(a1-6)]GalNAc
Procedure, shortened: as §1

[24] = target: Neu5Ac(a2-3)Gal(b1-4)GlcNAc(b1-3)Gal(b1-4)GlcNAc(b1-3)GalNAc
Procedure, shortened: as §1

[25] = target: Neu5Ac(a2-3)Gal(b1-4)GlcNAc(b1-3)Gal(b1-4)GlcNAc(b1-3)[Neu5Ac(a2-3)Gal(b1-4)GlcNAc(b1-3)Gal(b1-4)GlcNAc(b1-6)]GalNAc
Procedure, shortened: as §1

[26] = target: Neu5Ac(a2-3)Gal(b1-4)GlcNAc(b1-3)Gal(b1-4)GlcNAc(b1-6)[Gal(b1-3)]GalNAc
Procedure, shortened: as §1

[27] = target: Neu5Ac(a2-3)Gal(b1-4)GlcNAc(b1-3)Gal(b1-4)[Fuc(a1-3)]GlcNAc
Procedure, shortened: as §1

[28] = target: Neu5Ac(a2-3)Gal(b1-4)GlcNAc(b1-3)GalNAc
Procedure, shortened: as §1

[29] = target: Neu5Ac(a2-3)Gal(b1-4)GlcNAc(b1-3)[Neu5Ac(a2-3)Gal(b1-4)GlcNAc(b1-6)]GalNAc
Procedure, shortened: as §1

[30] = target: Neu5Ac(a2-3)Gal(b1-4)GlcNAc(b1-6)GalNAc
Procedure, shortened: as §1

[31] = target: Neu5Ac(a2-3)Gal(b1-4)GlcNAc(b1-6)[Gal(b1-3)]GalNAc
Procedure, shortened: as §1

[32] = target: Neu5Ac(a2-3)Gal(b1-4)GlcNAc(b1-6)[Neu5Ac(a2-3)Gal(b1-3)]GalNAc
Procedure, shortened: as §1

[33] = target: Neu5Ac(a2-3)Gal(b1-4)GlcNAc6S
Procedure, shortened: as §1

[34] = target: Neu5Ac(a2-3)Gal(b1-4)[Fuc(a1-3)]GlcNAc
Procedure, shortened: as §1

[35] = target: Neu5Ac(a2-3)Gal(b1-4)[Fuc(a1-3)]GlcNAc(b1-2)Man
Procedure, shortened: as §1

[36] = target: Neu5Ac(a2-3)Gal(b1-4)[Fuc(a1-3)]GlcNAc(b1-3)Gal
Procedure, shortened: as §1

[37] = target: Neu5Ac(a2-3)Gal(b1-4)[Fuc(a1-3)]GlcNAc(b1-3)Gal(b1-4)GlcNAc
Procedure, shortened: as §1

[38] = target: Neu5Ac(a2-3)Gal(b1-4)[Fuc(a1-3)]GlcNAc(b1-3)Gal(b1-4)[Fuc(a1-3)]GlcNAc(b1-3)Gal(b1-4)[Fuc(a1-3)]GlcNAc
Procedure, shortened: as §1

[39] = target: Neu5Ac(a2-3)Gal(b1-4)[Fuc(a1-3)]GlcNAc(b1-3)GalNAc
Procedure, shortened: as §1

[40] = target: Neu5Ac(a2-3)Gal(b1-4)[Fuc(a1-3)]GlcNAc(b1-6)[Gal(b1-3)]GalNAc
Procedure, shortened: as §1

[41] = target: Neu5Ac(a2-3)Gal(b1-4)[Fuc(a1-3)]GlcNAc(b1-6)[Neu5Ac(a2-3)Gal(b1-3)]GalNAc
Procedure, shortened: as §1

[42] = target: Neu5Ac(a2-3)Gal(b1-4)[Fuc(a1-3)]GlcNAc6S
Procedure, shortened: as §1

[43] = target: Neu5Ac(a2-3)Gal6S(b1-4)GlcNAc
Procedure, shortened: as §1

[44] = target: Neu5Ac(a2-3)Gal6S(b1-4)[Fuc(a1-3)]GlcNAc
Procedure, shortened: as §1

B1: PX14343I-pdi-501-30-501 (Parabacteroides distasonis) (protein)
chain: SDQYSTETFWKTKEHASAGIMGCYNALKLWRSLHTMEFDMLTANAMPYNEANGTQAIGKGEHLSTTALIGSLWKNCYVGIGRTNTFIANVGGVDMDESEKAKMVGEAKFLRAFYYLSLVDKFGGVPLIIDAPNADEQAELPRNSKEEVVNQIVKDLEEAAAVLPDTYASSDLGRATKGAALALKARTLLYNSRWAEAAQAAKQVMESGVYQLFNDYRHFFSEDNKYNCEVIFDIEAKLPEYPTDYDQNIWRLNRPAPLKELVDTYLCVDGKTIEESPLYDPTRPYENRDPRLLKSIVCIGYPYLGKTITKEDVATTGFGVKKYTSYEDDVTIPLVERSAFNFILIRYAEVLLTYAEAQNEASGPDQSVYDAINQLRRRPDINMPEVPKGLTKDQMREVIRRERRIELTFEGLYYSDILRWKTAEKENNGMMHNYEGIEVVKRSFNPKRDYLWPIPYNQTVLNPNLEQNPNWD
With B1 the “glycan array binding signal (z-score)” value [1] was -0.06, the “glycan array binding signal (z-score)” value [2] was -0.006 and the “glycan array binding signal (z-score)” value [3] was -0.652. The “glycan array binding signal (z-score)” value [4] was 0.535, the “glycan array binding signal (z-score)” value [5] was -0.417 and the “glycan array binding signal (z-score)” value [6] was -0.456. For the same binder, the “glycan array binding signal (z-score)” value [7] was -0.687, the “glycan array binding signal (z-score)” value (Neu5Ac(a2-3)Gal(b1-4)Glc) was -0.307 and the “glycan array binding signal (z-score)” value [8] was -0.256. The “glycan array binding signal (z-score)” value [9] was 0.484, the “glycan array binding signal (z-score)” value [10] was -0.861 and the “glycan array binding signal (z-score)” value [11] was -0.301. The “glycan array binding signal (z-score)” value [12] was -0.534, the “glycan array binding signal (z-score)” value [13] was -0.203 and the “glycan array binding signal (z-score)” value [14] was -0.878. The “glycan array binding signal (z-score)” value [15] was -0.853, the “glycan array binding signal (z-score)” value [16] was -0.133 and the “glycan array binding signal (z-score)” value [17] was -0.335. For the same binder, the “glycan array binding signal (z-score)” value [18] was -0.617, the “glycan array binding signal (z-score)” value [19] was -0.628 and the “glycan array binding signal (z-score)” value [20] was 0.023. For the same binder, the “glycan array binding signal (z-score)” value [21] was -0.252, the “glycan array binding signal (z-score)” value [22] was 0.106 and the “glycan array binding signal (z-score)” value [23] was 0.395. For the same binder, the “glycan array binding signal (z-score)” value [24] was -0.567, the “glycan array binding signal (z-score)” value [25] was -0.023 and the “glycan array binding signal (z-score)” value [26] was -0.397. The “glycan array binding signal (z-score)” value [27] was -0.4, the “glycan array binding signal (z-score)” value [28] was 0.922 and the “glycan array binding signal (z-score)” value [29] was -0.096. The “glycan array binding signal (z-score)” value [30] was -0.142, the “glycan array binding signal (z-score)” value [31] was -0.216 and the “glycan array binding signal (z-score)” value [32] was -0.54. The “glycan array binding signal (z-score)” value [33] was -0.006, the “glycan array binding signal (z-score)” value [34] was -0.149 and the “glycan array binding signal (z-score)” value [35] was -0.585. The “glycan array binding signal (z-score)” value [36] was -0.533, the “glycan array binding signal (z-score)” value [37] was 0.531 and the “glycan array binding signal (z-score)” value [38] was -0.292. For the same binder, the “glycan array binding signal (z-score)” value [39] was -0.408, the “glycan array binding signal (z-score)” value [40] was -0.221 and the “glycan array binding signal (z-score)” value [41] was 0.289. For the same binder, the “glycan array binding signal (z-score)” value [42] was -0.951, the “glycan array binding signal (z-score)” value [43] was 0.278 and the “glycan array binding signal (z-score)” value [44] was -0.698.
